Here are results for one substance from patent US6623740B1 (Ludwig Institute for Cancer Research, priority 1997, dated 2003).

The nature of the data set: general procedure: Fmoc solid-phase peptide synthesis. Particulars: whole synthesis.

HELM strings list residues between dots; [ac] is acetyl, [am] amide, other brackets name non-standard units.

In the case of PEPTIDE1{E.A.D.P.T.G.H.S.Y}$$$$V2.0, the “final purity (method not given)” value is reported as “greater than 98%”.
